Laboratory results published in ChEMBL document CHEMBL4680097 (J Med Chem, 2016).

By UniProt entry, the sequences of proteins in these tests, tags left out. Where a name states a change or a piece, a line headed by the entry shows the natural chain unless it says otherwise.
UniProt O15379: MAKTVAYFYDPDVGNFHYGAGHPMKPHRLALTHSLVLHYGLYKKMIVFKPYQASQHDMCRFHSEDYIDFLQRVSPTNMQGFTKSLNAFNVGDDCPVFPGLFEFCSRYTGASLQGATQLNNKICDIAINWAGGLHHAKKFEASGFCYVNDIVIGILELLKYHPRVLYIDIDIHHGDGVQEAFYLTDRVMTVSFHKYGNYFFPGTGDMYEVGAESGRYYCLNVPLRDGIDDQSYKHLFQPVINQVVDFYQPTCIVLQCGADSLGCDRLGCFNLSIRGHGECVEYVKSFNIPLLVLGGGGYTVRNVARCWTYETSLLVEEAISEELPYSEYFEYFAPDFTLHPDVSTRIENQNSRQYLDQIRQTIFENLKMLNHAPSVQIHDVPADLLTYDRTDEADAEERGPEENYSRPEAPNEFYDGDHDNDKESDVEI

Molecular target: Histone deacetylase 3 (Homo sapiens, UniProt O15379)
Assay: Inhibition of recombinant HDAC3 (unknown origin)incubated for 15 mins before substrate addition and measured after 30 to 45 mins by HDAC-Glo substrate
How it was run: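 HDAC isoforms captured from HeLa cell lysate with plate-bound isoform-specific antibodies (lysate 100 µg/mL for HDAC1/2, 1 mg/mL for HDAC3/6); inhibitor in DMSO preincubated 15 min at room temperature, then HDAC-Glo substrate/developer 30–45 min; luminescence, background-corrected against no-antibody wells; % activity vs DMSO control; at least two independent trials, mean ± standard error. Concentrations are final.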

SMILES: CCCCCCCC(=O)SCC/C=C/[C@@H]1CC(=O)NCc2nc(cs2)C2=N[C@@](C)(CS2)C(=O)N[C@@H](C(C)C)C(=O)O1 [LARGAZOLE]
- IC50: 0.05 µM
